# Assay results taken from the supplement of paper PMC10032668.
# By UniProt entry, the sequences of proteins in these tests, tags left out.
# KPNA3, O00505, UniProt O00505, whole entry: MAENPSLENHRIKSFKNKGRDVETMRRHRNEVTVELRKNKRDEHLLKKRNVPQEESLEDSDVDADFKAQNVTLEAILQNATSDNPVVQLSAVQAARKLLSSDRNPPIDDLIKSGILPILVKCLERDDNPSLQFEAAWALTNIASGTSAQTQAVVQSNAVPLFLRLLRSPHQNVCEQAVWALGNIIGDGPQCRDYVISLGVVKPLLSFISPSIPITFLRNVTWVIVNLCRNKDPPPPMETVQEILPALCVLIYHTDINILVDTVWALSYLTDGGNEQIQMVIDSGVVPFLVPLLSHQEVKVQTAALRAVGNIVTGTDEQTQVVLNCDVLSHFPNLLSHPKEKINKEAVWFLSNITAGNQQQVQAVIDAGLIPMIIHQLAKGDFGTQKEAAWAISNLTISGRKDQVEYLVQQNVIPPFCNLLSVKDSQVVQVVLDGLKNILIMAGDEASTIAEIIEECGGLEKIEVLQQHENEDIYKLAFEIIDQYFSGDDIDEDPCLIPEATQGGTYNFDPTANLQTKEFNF
# PHAX, Q9H814, UniProt Q9H814, whole entry: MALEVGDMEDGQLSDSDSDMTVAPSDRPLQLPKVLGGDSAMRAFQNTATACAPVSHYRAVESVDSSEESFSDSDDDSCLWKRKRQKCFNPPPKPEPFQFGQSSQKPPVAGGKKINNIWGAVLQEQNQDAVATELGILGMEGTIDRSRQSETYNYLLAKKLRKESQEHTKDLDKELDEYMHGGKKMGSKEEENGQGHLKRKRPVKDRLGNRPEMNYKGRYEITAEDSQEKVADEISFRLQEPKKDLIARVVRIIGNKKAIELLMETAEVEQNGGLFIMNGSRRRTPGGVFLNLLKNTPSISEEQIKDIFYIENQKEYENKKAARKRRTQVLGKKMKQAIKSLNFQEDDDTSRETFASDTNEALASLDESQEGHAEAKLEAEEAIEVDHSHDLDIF
# CD3EAP, O15446, UniProt O15446, whole entry: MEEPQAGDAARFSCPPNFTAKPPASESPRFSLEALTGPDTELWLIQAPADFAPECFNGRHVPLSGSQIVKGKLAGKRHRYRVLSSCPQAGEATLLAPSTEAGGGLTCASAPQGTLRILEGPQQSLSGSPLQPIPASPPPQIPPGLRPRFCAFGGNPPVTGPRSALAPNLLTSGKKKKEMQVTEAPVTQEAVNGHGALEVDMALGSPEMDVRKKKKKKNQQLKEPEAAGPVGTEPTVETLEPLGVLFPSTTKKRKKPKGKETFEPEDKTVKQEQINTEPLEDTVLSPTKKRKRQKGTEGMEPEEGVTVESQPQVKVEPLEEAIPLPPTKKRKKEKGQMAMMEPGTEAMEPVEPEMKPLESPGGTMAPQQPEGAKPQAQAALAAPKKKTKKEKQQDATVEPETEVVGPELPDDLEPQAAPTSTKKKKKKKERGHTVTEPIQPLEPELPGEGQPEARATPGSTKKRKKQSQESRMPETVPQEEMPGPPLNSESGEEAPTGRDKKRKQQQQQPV
# H2AFY, O75367, UniProt O75367, whole entry: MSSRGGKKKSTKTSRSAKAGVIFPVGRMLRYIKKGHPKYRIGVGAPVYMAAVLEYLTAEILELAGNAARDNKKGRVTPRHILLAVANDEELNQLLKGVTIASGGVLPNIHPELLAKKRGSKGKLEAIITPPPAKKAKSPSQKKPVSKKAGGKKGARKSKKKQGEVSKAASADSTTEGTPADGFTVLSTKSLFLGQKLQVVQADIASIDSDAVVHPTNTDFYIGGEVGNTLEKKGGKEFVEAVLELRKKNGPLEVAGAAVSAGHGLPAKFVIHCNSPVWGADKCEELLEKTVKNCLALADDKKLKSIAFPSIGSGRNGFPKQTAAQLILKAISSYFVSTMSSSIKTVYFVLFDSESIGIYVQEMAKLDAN
# The list shows a part of the results. The list holds hits alone, and they repeat only in part.
# Assays:
# Experiment in all cases: PRISMA enrichment of interactor (LFQ) in peptide spot vs all other peptide spots (log2 fold change); higher = stronger / more specific binding of the interactor to the peptide
# [1] = target: ANP32A, P39687
# Description: (§1)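 PRISMA: 221 full-length sORF-encoded peptides (3-15 aa), plus SOS1/GLUT1 control peptides, were spot-synthesized on cellulose membranes in triplicate. Membranes were incubated with HEK293T lysate, and bound proteins were identified by LC-MS/MS with LFQ. Enrichment is the log2 fold change versus all other peptide spots; only significant interactors are listed (cutoff c=6, x0=2.8).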
# [2] = target: ANP32B, Q92688
# Description: as §1
# [3] = target: ANP32E, Q9BTT0
# Description: as §1
# [4] = target: CCDC47, Q96A33
# Description: as §1
# [5] = target: CDC73, Q6P1J9
# Description: as §1
# [6] = target: CLSPN, Q9HAW4
# Description: as §1
# [7] = target: CTR9, Q6PD62
# Description: as §1
# [8] = target: DAP3, P51398
# Description: as §1
# [9] = target: GTF2E2, P29084
# Description: as §1
# [10] = target: GTF3C5, Q9Y5Q8
# Description: as §1
# [11] = target: HTATSF1, O43719
# Description: as §1
# [12] = target: KPNA3, O00505
# Description: as §1
# [13] = target: LARP1, Q6PKG0
# Description: as §1
# [14] = target: MRPL12, P52815
# Description: as §1
# [15] = target: MRPL37, Q9BZE1
# Description: as §1
# [16] = target: MRPL39, Q9NYK5
# Description: as §1
# [17] = target: MRPS31, Q92665
# Description: as §1
# [18] = target: MRPS5, P82675
# Description: as §1
# [19] = target: NAP1L1, P55209
# Description: as §1
# [20] = target: NAT10, Q9H0A0
# Description: as §1
# [21] = target: NPM3, O75607
# Description: as §1
# [22] = target: PAF1, Q8N7H5
# Description: as §1
# [23] = target: PHAX, Q9H814
# Description: as §1
# [24] = target: PPM1G, O15355
# Description: as §1
# [25] = target: PTCD3, Q96EY7
# Description: as §1
# [26] = target: RO60, P10155
# Description: as §1
# [27] = target: SART3, Q15020
# Description: as §1
# [28] = target: SMAP, O00193
# Description: as §1
# [29] = target: SRP19, P09132
# Description: as §1
# [30] = target: SUPT5H, O00267
# Description: as §1
# [31] = target: WDR43, Q15061
# Description: as §1
# [32] = target: ANKRD17, O75179
# Description: as §1
# [33] = target: AZU1, P20160
# Description: as §1
# [34] = target: CALU, O43852
# Description: as §1
# [35] = target: CD3EAP, O15446
# Description: as §1
# [36] = target: ELL, P55199
# Description: as §1
# [37] = target: EXO1, Q9UQ84
# Description: as §1
# [38] = target: H2AFY, O75367
# Description: as §1
# [39] = target: MCRIP2, Q9BUT9
# Description: as §1
# [40] = target: RNF5, Q99942
# Description: as §1
# [41] = target: SCO1, O75880
# Description: as §1
binder,measurement,setting,value
MRKMAASKGG [ATPAF2],PRISMA enrichment of interactor (log2),[1],6.37
same,PRISMA enrichment of interactor (log2),[2],7.44
same,PRISMA enrichment of interactor (log2),[3],7.08
same,PRISMA enrichment of interactor (log2),[4],5.86
same,PRISMA enrichment of interactor (log2),[5],5.34
same,PRISMA enrichment of interactor (log2),[6],3.76
same,PRISMA enrichment of interactor (log2),[7],5.54
same,PRISMA enrichment of interactor (log2),[8],5.37
same,PRISMA enrichment of interactor (log2),[9],4.09
same,PRISMA enrichment of interactor (log2),[10],4.38
same,PRISMA enrichment of interactor (log2),[11],6.28
same,PRISMA enrichment of interactor (log2),[12],4.48
same,PRISMA enrichment of interactor (log2),[13],5.73
same,PRISMA enrichment of interactor (log2),[14],4.43
same,PRISMA enrichment of interactor (log2),[15],4.96
same,PRISMA enrichment of interactor (log2),[16],5.81
same,PRISMA enrichment of interactor (log2),[17],5.16
same,PRISMA enrichment of interactor (log2),[18],5.4
same,PRISMA enrichment of interactor (log2),[19],5.82
same,PRISMA enrichment of interactor (log2),[20],4.99
same,PRISMA enrichment of interactor (log2),[21],6.22
same,PRISMA enrichment of interactor (log2),[22],5.83
same,PRISMA enrichment of interactor (log2),[23],4.4
same,PRISMA enrichment of interactor (log2),[24],6.71
same,PRISMA enrichment of interactor (log2),[25],5.98
same,PRISMA enrichment of interactor (log2),[26],5.47
same,PRISMA enrichment of interactor (log2),[27],4.81
same,PRISMA enrichment of interactor (log2),[28],4.91
same,PRISMA enrichment of interactor (log2),[29],5.19
same,PRISMA enrichment of interactor (log2),[30],4.98
same,PRISMA enrichment of interactor (log2),[31],5.21
MYRGSPTACETQAAA [COA4],PRISMA enrichment of interactor (log2),[32],12.2
same,PRISMA enrichment of interactor (log2),[33],4.5
same,PRISMA enrichment of interactor (log2),[34],7.28
same,PRISMA enrichment of interactor (log2),[35],5.08
same,PRISMA enrichment of interactor (log2),[36],6
same,PRISMA enrichment of interactor (log2),[37],6.6
same,PRISMA enrichment of interactor (log2),[38],5.06
same,PRISMA enrichment of interactor (log2),[39],4
same,PRISMA enrichment of interactor (log2),[40],5.32
same,PRISMA enrichment of interactor (log2),[41],5.23

# 3 records drawn at random from those above, as already listed:
binder,measurement,setting,value
MRKMAASKGG [ATPAF2],PRISMA enrichment of interactor (log2),[3],7.08
same,PRISMA enrichment of interactor (log2),[14],4.43
MYRGSPTACETQAAA [COA4],PRISMA enrichment of interactor (log2),[34],7.28
